Results are given in words; binding and its absence hold for the method and conditions named. Binding seen in cells or lysates may run through a third protein. A yes stands for co-enrichment or nearness to the bait. Other partners may have been found.
Assays:
Test in all cases: proximity labelling
Flag-BirA*HP1-α (human) = Flag-BirA*HP1-α (human) (UniProt P45973)
Flag-BirA*HP1-β (human) = Flag-BirA*HP1-β (human) (UniProt P83916)
[1] = target: Flag-BirA*HP1-α (human), P45973; details: remark: other sources report otherwise

By UniProt entry, the sequences of proteins in these tests, tags left out.
UniProt P45973: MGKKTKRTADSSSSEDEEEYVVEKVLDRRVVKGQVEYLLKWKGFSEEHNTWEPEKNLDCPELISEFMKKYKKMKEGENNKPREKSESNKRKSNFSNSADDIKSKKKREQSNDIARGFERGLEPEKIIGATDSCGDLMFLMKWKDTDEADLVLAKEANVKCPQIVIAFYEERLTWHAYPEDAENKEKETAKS
UniProt P83916: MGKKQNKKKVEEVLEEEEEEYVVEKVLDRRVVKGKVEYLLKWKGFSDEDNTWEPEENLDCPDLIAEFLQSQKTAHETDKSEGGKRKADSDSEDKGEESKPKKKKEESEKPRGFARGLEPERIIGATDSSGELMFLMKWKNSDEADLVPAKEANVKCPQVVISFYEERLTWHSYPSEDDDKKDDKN

| Binder | binding (Flag-BirA*HP1-α (human)) | binding (Flag-BirA*HP1-β (human)) | binding [1] |
| --- | --- | --- | --- |
| POGO transposable element derived with ZNF domain protein (POGZ) (protein, UniProt Q7Z3K3 1-1410) MADTDLFMECEEEELEPWQKISDVIEDSVVEDYNSVDKTTTVSVSQQPVSAPVPIAAHASVAGHLSTSTTVSSSGAQNSDSTKKTLVTLIANNNAGNPLVQQGGQPLILTQNPAPGLGTMVTQPVLRPVQVMQNANHVTSSPVASQPIFITTQGFPVRNVRPVQNAMNQVGIVLNVQQGQTVRPITLVPAPGTQFVKPTVGVPQVFSQMTPVRPGSTMPVRPTTNTFTTVIPATLTIRSTVPQSQSQQTKSTPSTSTTPTATQPTSLGQLAVQSPGQSNQTTNPKLAPSFPSPPAVSIASFVTVKRPGVTGENSNEVAKLVNTLNTIPSLGQSPGPVVVSNNSSAHGSQRTSGPESSMKVTSSIPVFDLQDGGRKICPRCNAQFRVTEALRGHMCYCCPEMVEYQKKGKSLDSEPSVPSAAKPPSPEKTAPVASTPSSTPIPALSPPTKVPEPNENVGDAVQTKLIMLVDDFYYGRDGGKVAQLTNFPKVATSFRCPHCTKRLKNNIRFMNHMKHHVELDQQNGEVDGHTICQHCYRQFSTPFQLQCHLENVHSPYESTTKCKICEWAFESEPLFLQHMKDTHKPGEMPYVCQVCQYRSSLYSEVDVHFRMIHEDTRHLLCPYCLKVFKNGNAFQQHYMRHQKRNVYHCNKCRLQFLFAKDKIEHKLQHHKTFRKPKQLEGLKPGTKVTIRASRGQPRTVPVSSNDTPPSALQEAAPLTSSMDPLPVFLYPPVQRSIQKRAVRKMSVMGRQTCLECSFEIPDFPNHFPTYVHCSLCRYSTCCSRAYANHMINNHVPRKSPKYLALFKNSVSGIKLACTSCTFVTSVGDAMAKHLVFNPSHRSSSILPRGLTWIAHSRHGQTRDRVHDRNVKNMYPPPSFPTNKAATVKSAGATPAEPEELLTPLAPALPSPASTATPPPTPTHPQALALPPLATEGAECLNVDDQDEGSPVTQEPELASGGGGSGGVGKKEQLSVKKLRVVLFALCCNTEQAAEHFRNPQRRIRRWLRRFQASQGENLEGKYLSFEAEEKLAEWVLTQREQQLPVNEETLFQKATKIGRSLEGGFKISYEWAVRFMLRHHLTPHARRAVAHTLPKDVAENAGLFIDFVQRQIHNQDLPLSMIVAIDEISLFLDTEVLSSDDRKENALQTVGTGEPWCDVVLAILADGTVLPTLVFYRGQMDQPANMPDSILLEAKESGYSDDEIMELWSTRVWQKHTACQRSKGMLVMDCHRTHLSEEVLAMLSASSTLPAVVPAGCSSKIQPLDVCIKRTVKNFLHKKWKEQAREMADTACDSDVLLQLVLVWLGEVLGVIGDCPELVQRSFLVASVLPGPDGNINSPTRNADMQEELIASLEEQLKLSGEHSESSTPRPRSSPEETIEPESLHQLFEGESETESFYGFEEADLDLMEI | binds | binds | – |
| EHMT1, Q9H9B1 1-1298 (protein) MAAADAEAVPARGEPQQDCCVKTELLGEETPMAADEGSAEKQAGEAHMAADGETNGSCENSDASSHANAAKHTQDSARVNPQDGTNTLTRIAENGVSERDSEAAKQNHVTADDFVQTSVIGSNGYILNKPALQAQPLRTTSTLASSLPGHAAKTLPGGAGKGRTPSAFPQTPAAPPATLGEGSADTEDRKLPAPGADVKVHRARKTMPKSVVGLHAASKDPREVREARDHKEPKEEINKNISDFGRQQLLPPFPSLHQSLPQNQCYMATTKSQTACLPFVLAAAVSRKKKRRMGTYSLVPKKKTKVLKQRTVIEMFKSITHSTVGSKGEKDLGASSLHVNGESLEMDSDEDDSEELEEDDGHGAEQAAAFPTEDSRTSKESMSEADRAQKMDGESEEEQESVDTGEEEEGGDESDLSSESSIKKKFLKRKGKTDSPWIKPARKRRRRSRKKPSGALGSESYKSSAGSAEQTAPGDSTGYMEVSLDSLDLRVKGILSSQAEGLANGPDVLETDGLQEVPLCSCRMETPKSREITTLANNQCMATESVDHELGRCTNSVVKYELMRPSNKAPLLVLCEDHRGRMVKHQCCPGCGYFCTAGNFMECQPESSISHRFHKDCASRVNNASYCPHCGEESSKAKEVTIAKADTTSTVTPVPGQEKGSALEGRADTTTGSAAGPPLSEDDKLQGAASHVPEGFDPTGPAGLGRPTPGLSQGPGKETLESALIALDSEKPKKLRFHPKQLYFSARQGELQKVLLMLVDGIDPNFKMEHQNKRSPLHAAAEAGHVDICHMLVQAGANIDTCSEDQRTPLMEAAENNHLEAVKYLIKAGALVDPKDAEGSTCLHLAAKKGHYEVVQYLLSNGQMDVNCQDDGGWTPMIWATEYKHVDLVKLLLSKGSDINIRDNEENICLHWAAFSGCVDIAEILLAAKCDLHAVNIHGDSPLHIAARENRYDCVVLFLSRDSDVTLKNKEGETPLQCASLNSQVWSALQMSKALQDSAPDRPSPVERIVSRDIARGYERIPIPCVNAVDSEPCPSNYKYVSQNCVTSPMNIDRNITHLQYCVCIDDCSSSNCMCGQLSMRCWYDKDGRLLPEFNMAEPPLIFECNHACSCWRNCRNRVVQNGLRARLQLYRTRDMGWGVRSLQDIPPGTFVCEYVGELISDSEADVREEDSYLFDLDNKDGEVYCIDARFYGNVSRFINHHCEPNLVPVRVFMAHQDLRFPRIAFFSTRLIEAGEQLGFDYGERFWDIKGKLFSCRCGSPKCRHSSAALAQRQASAAQEAQEDGLPDTSSAAAADPL | – | – | binds |

— article doi:10.1101/2021.06.28.447216
